# Among all 350,000 compounds or so, about 6,000 (1.7%) were called active. This list was built around the results that the source calls inconclusive (neither active nor inactive); the mix of calls is not that of the screen. No stated cut-off is given here; in the data, active means CPE inhibition above about 20% (passing the limit was not always enough); inconclusive means no clear call, values can overlap the other calls; tested in BHK-21 cells.
# Assay: protection of cells from dengue 2 killing – plate reader, single concentration, primary screen (AID 651640);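 further: 0% = median of neutral control wells and 100% = median of positive control wells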
# Conditions: DENV2-infected cells, cytopathic effect rescue, at 9.99 µM, hits give high values
row,Structure (SMILES),CPE inhibition
1,C[C@@H]1CCCCO[C@@H](CN(C)C(=O)Nc2ccc3c(c2)OCO3)[C@@H](C)CN([C@H](C)CO)C(=O)c2cc(NC(=O)c3ccccc3)ccc2O1,active: 20.4%
2,COc1ccc(S(=O)(=O)N[C@@H]2CC[C@@H](CCn3cc(-c4ccccc4F)nn3)O[C@@H]2CO)cc1,inactive: -8.81%
3,CO[C@@H]1CN(C)C(=O)c2cc(NC(=O)c3nc4ccccc4s3)ccc2OC[C@@H](C)N(Cc2ccncc2)C[C@H]1C,inactive: 6.5%
4,Cn1ccnc1C(O)c1cccc(OCc2ccccc2)c1 (configuration not stated),inactive: -0.962%
5,Cc1ccc([C@@H]2[C@@H]3C(=O)N(c4ccccc4)C(=O)[C@@H]3[C@]3(C)C(=O)N(CC4CC4)CC(=O)N23)o1,active: 50.4%
6,C[C@H](CO)N1C[C@H](C)[C@H](CN(C)C(=O)c2cccc(F)c2)Oc2ncc(-c3ccncc3)cc2C1=O,inactive: 1.56%
7,C/C=C/c1ccc([C@@H]2[C@@H](CO)N3C(=O)CN(Cc4ccccc4)C[C@H]23)cc1,active: 25.2%
8,O=C(O)c1cccc(-c2csc(C(O)c3cccc(Cl)c3)n2)c1 (configuration not stated),active: 45.9%
9,O=C(NC1CCCC1)N1CC(=O)N2[C@H](CO)[C@@H](c3ccc(-c4cccc(F)c4)cc3)[C@@H]2C1,inconclusive: 28%
10,CCOC(=O)[C@H]1[C@H]2COc3ccc(C)cc3[C@@H]2N2C(=O)[C@@H](CO)NC(=O)[C@@]12C,inconclusive: 70.7%
11,Cc1noc(C)c1NC(=O)Nc1ccc2c(c1)C(=O)N([C@H](C)CO)C[C@@H](C)[C@@H](CN(C)Cc1ccc(C(F)(F)F)cc1)OCCCC[C@@H](C)O2,inactive: 4.49%
12,C[C@H](CO)N1C[C@H](C)[C@@H](CN(C)Cc2ccc3c(c2)OCO3)Oc2c(NC(=O)Cc3ccccc3)cccc2C1=O,inconclusive: 51.4%
13,COc1ccc(/C=C/c2c(-c3ccccc3OC)sc3ccccc23)cc1OC,inconclusive: 50.8%
14,Cc1ccc(N(Cc2cc(=O)[nH]c3ccccc23)C(=O)C(C)C)cc1,inconclusive: 23.8%
15,CC(C)NC(=O)N(C)C[C@H]1Oc2cc(-c3ccccc3F)ccc2S(=O)(=O)N([C@H](C)CO)C[C@@H]1C,inactive: 9.66%
16,Cc1ccc(C(=O)OCC(=O)Nc2cccc(S(=O)(=O)NC3=NCCCCC3)c2)c(C)c1,inactive: -1.78%
17,CC(=O)NC(Cc1ccc(F)cc1)C(=O)NC1CCN(C(=O)Nc2cccc(C)c2)CC1 (configuration not stated),inconclusive: 33.9%
18,Cc1ccc(CN2CC(=O)N3[C@H](CO)[C@H](c4ccc(Br)cc4)[C@@H]3C2)cc1,inactive: -9.02%
19,O=C(NCCC1CCCCN1S(=O)(=O)c1ccccc1)C(=O)NCc1ccccn1 (configuration not stated),active: 91.7%
20,COc1ccccc1CNC(=O)C[C@@H]1C[C@@H]2c3cc(NC(=O)Nc4ccc(C(F)(F)F)cc4)ccc3O[C@@H]2[C@H](CO)O1,inactive: -1.61%
21,C[C@@H]1CN([C@H](C)CO)C(=O)CCCn2nncc2CO[C@@H]1CN(C)C(=O)c1cc(-c2ccccc2)on1,inconclusive: 26.7%
22,CC(=O)c1cccc(NC(=O)C2=CC(c3cccs3)=NS(=O)(=O)N2C)c1,inactive: -3%
23,O=C(Cc1ccccn1)N1CC(=O)N2[C@H](CO)[C@H](c3ccc(C#CC4CC4)cc3)[C@@H]2C1,active: 40%
24,O=C(CC(F)(F)F)N1C[C@H]2[C@@H](c3ccccc31)[C@@H](CO)N2Cc1cccnc1,active: 27.2%

# Copied from the list:
# Value of C/C=C/c1ccc([C@@H]2[C@@H](CO)N3C(=O)CN(Cc4ccccc4)C[C@H]23)cc1 under CPE inhibition: active: 25.2%
# Value of O=C(Cc1ccccn1)N1CC(=O)N2[C@H](CO)[C@H](c3ccc(C#CC4CC4)cc3)[C@@H]2C1 under CPE inhibition: active: 40%
# Value of CCOC(=O)[C@H]1[C@H]2COc3ccc(C)cc3[C@@H]2N2C(=O)[C@@H](CO)NC(=O)[C@@]12C under CPE inhibition: inconclusive: 70.7%
# Value of CC(C)NC(=O)N(C)C[C@H]1Oc2cc(-c3ccccc3F)ccc2S(=O)(=O)N([C@H](C)CO)C[C@@H]1C under CPE inhibition: inactive: 9.66%

# Next part.

row,Structure (SMILES),CPE inhibition
1,O=C(c1ccccn1)N1CC2(C1)[C@@H](c1ccccc1)[C@@H](CO)N2C(=O)CC1CC1,active: 34.6%
2,C[C@@H]1CN([C@H](C)CO)C(=O)c2cc(NC(=O)Nc3cccc4ccccc34)ccc2O[C@H]1CN(C)C(=O)Nc1ccccc1,inconclusive: 38.1%
3,COc1ccc(OC)c(S(=O)(=O)N2CCC3(CC2)OCCN3S(=O)(=O)c2cccs2)c1,inactive: 8.11%
4,CC1Cc2nc(SCC(=O)NCc3ccco3)n(-c3ccccc3)c(=O)c2S1 (configuration not stated),inconclusive: 28.1%
5,O=C(COC(=O)c1nc(Cl)ccc1Cl)c1ccccc1Cl,inactive: 6.64%
6,CN(CCC1CCCCO1)C(=O)CCc1nnc(CCc2ccccc2)o1 (configuration not stated),active: 61.3%
7,Cc1cc2nc(CSc3ccc(Cl)cc3)cc(=O)n2[nH]1,inactive: -10.1%
8,CC(=NNC(=S)N1CCN(C2CCCCCC2)CC1)c1ccccn1,inactive: 3.96%
9,Cc1ccc(-c2csc(NCCn3c(C(F)(F)F)nc4ccccc43)n2)cc1,inconclusive: 74.2%
10,O=C(Nc1cccc(F)c1)N1C[C@H]2[C@@H](c3ccccc31)[C@H](CO)N2C(=O)c1ccccn1,inactive: 17.5%
11,COc1cccc(C(=O)NCCS(=O)(=O)NCc2ccc3c(c2)OCO3)c1,inconclusive: 44.6%
12,Cc1ccc(F)cc1S(=O)(=O)N[C@@H]1CCN(Cc2ccc(-c3ccccc3)cc2)C1,inactive: -7.61%
13,CCN=C1NC(CCc2ccccc2)C(C(=O)OC)=C(C)N1Cc1ccccc1C(F)(F)F (configuration not stated),inconclusive: 21.4%
14,C#Cc1ccccc1OCCCN1CCC(C(O)(c2ccccc2)c2ccccc2)CC1,inconclusive: 36.1%
15,C[C@@H]1CN([C@@H](C)CO)C(=O)c2cccc(NS(=O)(=O)c3ccccc3)c2O[C@@H]1CN(C)CC1CCCCC1,active: 24.4%
16,Cc1ccc(OCCCCN2CCc3ccccc3C2)c(C)c1,inconclusive: 23.9%
17,COc1ccccc1N1CCN(C(=O)C2Cc3ccccc3CN2C(=O)c2ccco2)CC1 (configuration not stated),inconclusive: 20.1%
18,CCC1(c2ccccc2)CN(C)C1=O (configuration not stated),inconclusive: 41.4%
19,CC(C)NC(=O)N(C)C[C@H]1Oc2ccc(NC(=O)CCC(F)(F)F)cc2CC(=O)N([C@H](C)CO)C[C@H]1C,inactive: -5.02%
20,COc1ccc2c3c([nH]c2c1)[C@@H](CO)N(Cc1ccccc1)CC31CN(C)C1,inactive: -6.12%
21,COc1cc(C(C)=O)ccc1Oc1ncccn1,inconclusive: 26.8%
22,COCC(=O)N1[C@H](CO)[C@@H](c2ccc(-c3cccc(OC)c3)cc2)C12CN(C(C)=O)C2,active: 28%
23,Cc1ccccc1-c1cnc2c(c1)C(=O)N([C@@H](C)CO)C[C@@H](C)[C@H](CN(C)Cc1ccccc1F)O2,inconclusive: 22.4%
24,Cc1noc(C)c1S(=O)(=O)Nc1ccc2c(c1)C(=O)N([C@@H](C)CO)C[C@H](C)[C@H](CN(C)Cc1ccc(C(F)(F)F)cc1)OCCCC[C@H](C)O2,inactive: -2.97%

row,Structure (SMILES),CPE inhibition
1,CN(C)C(=O)[C@@H]1[C@@H](CO)[C@@H]2Cn3c(ccc(-c4ccccc4)c3=O)[C@@H]2N1C(=O)c1ccccn1,inactive: 2.85%
2,O=C(NN1C(=O)C2C3C=CC(O3)C2C1=O)c1ccncc1 (configuration not stated),inconclusive: 24.4%
3,COc1ccccc1NC(=O)N[C@@H]1CC[C@H](CC(=O)N2CCC(Cc3ccccc3)CC2)O[C@H]1CO,inconclusive: 21.4%
4,COc1ccc(NC(=O)Nc2ccc3c(c2)C(=O)N([C@H](C)CO)C[C@H](C)[C@@H](CN(C)C(=O)Nc2ccc(C(F)(F)F)cc2)OCCCC[C@@H](C)O3)cc1,inconclusive: 61.6%
5,Cc1cccc(-n2ncc3c(NCc4cccnc4)ncnc32)c1,inconclusive: 47%
6,CCOC(=O)N1CCN(Cc2nc3cc(NC(=O)CC(C)C)ccc3n2CC)CC1,inconclusive: 23.1%
7,CCOc1ccc(Cl)cc1-c1cc(C(=O)NCc2cccs2)[nH]n1,inconclusive: 47.5%
8,Cc1cc(C)cc(N(CCC#N)C(=O)COC(=O)CNC(=O)c2sc3ccccc3c2Cl)c1,inconclusive: 22%
9,Cn1nc(C(F)(F)F)c(-c2ccc(Br)cc2)c1NC(=O)CSCC(=O)O,active: 58.1%
10,COc1ccc(N2CCN(C(=O)CCNC(=O)c3ccc(Br)cc3)CC2)cc1,inconclusive: 97.8%
11,CC(=O)N(C(C)=O)S(=O)(=O)c1ccc(N=NN2CCOCC2)cc1,inconclusive: 30.7%
12,C[C@H]1CCCCO[C@@H](CN(C)C(=O)c2ccccc2)[C@@H](C)CN([C@@H](C)CO)C(=O)c2cc(NC(=O)Nc3ccc(F)cc3)ccc2O1,active: 22.4%
13,C[C@@H]1CN([C@H](C)CO)C(=O)Cc2cc(NS(=O)(=O)c3ccc(Cl)cc3)ccc2O[C@H]1CN(C)C(=O)NC1CCCCC1,active: 36.5%
14,CCC(C)N1C(=O)S/C(=C/c2ccc3c(c2)n(C)c(=O)n3C)C1=O (configuration not stated),inactive: 9.17%
15,C[C@@H]1CN([C@H](C)CO)C(=O)c2cccc(NC(=O)NC3CCCCC3)c2O[C@H]1CN(C)Cc1ccc(C(F)(F)F)cc1,inactive: 0.691%
16,COc1cccc(C#Cc2ccc3c(c2)O[C@H](CN(C)C(=O)CN2CCOCC2)[C@@H](C)CN([C@H](C)CO)S3(=O)=O)c1,inconclusive: 0.943%
17,C[C@@H](NC(=O)[C@H]1[C@H](CO)[C@H]2Cn3c(cccc3=O)[C@H]2N1CC1CCCCC1)c1ccccc1,active: 24.2%
18,N=C1S/C(=C\c2ccco2)C(=O)N1c1nccs1,inconclusive: 31.7%
19,CC1(NC(=O)c2ccccc2)CCN(CCCc2ccccc2)C1=O (configuration not stated),inactive: 1.46%
20,CCCCCCn1c(CN2CCN(CCO)CC2)nc2c1c(=O)n(C)c(=O)n2C,inconclusive: 66.1%
21,C=CCn1c(SCC(=O)Nc2cc(C)on2)nnc1-c1ccncc1,inactive: -3.67%
22,COc1ccccc1C#Cc1ccc2c(c1)[C@@H]1[C@@H](CCN1C(C)=O)[C@@H](CO)N2C,inactive: 6.63%
23,Cc1cc(Cl)ccc1OC(C)C(=O)NN=C1CCCCCC1 (configuration not stated),inconclusive: 24.8%
24,C[C@@H]1CCCCO[C@@H](CN(C)Cc2ccc(Cl)c(Cl)c2)[C@@H](C)CN([C@H](C)CO)C(=O)c2cc(NC(=O)CCC(F)(F)F)ccc2O1,inconclusive: 21.9%

# Source: PubChem BioAssay AID651640 (Broad Institute, 2012)
